Test results reported in publication PMC10816710.
These are yes or no findings as the source states them, for the method shown. Binding seen in cells or lysates may run through a third protein. Some entries that bind do so weakly or less than the wild type.

By UniProt entry, the sequences of proteins in these tests, tags left out.
UniProt P27323: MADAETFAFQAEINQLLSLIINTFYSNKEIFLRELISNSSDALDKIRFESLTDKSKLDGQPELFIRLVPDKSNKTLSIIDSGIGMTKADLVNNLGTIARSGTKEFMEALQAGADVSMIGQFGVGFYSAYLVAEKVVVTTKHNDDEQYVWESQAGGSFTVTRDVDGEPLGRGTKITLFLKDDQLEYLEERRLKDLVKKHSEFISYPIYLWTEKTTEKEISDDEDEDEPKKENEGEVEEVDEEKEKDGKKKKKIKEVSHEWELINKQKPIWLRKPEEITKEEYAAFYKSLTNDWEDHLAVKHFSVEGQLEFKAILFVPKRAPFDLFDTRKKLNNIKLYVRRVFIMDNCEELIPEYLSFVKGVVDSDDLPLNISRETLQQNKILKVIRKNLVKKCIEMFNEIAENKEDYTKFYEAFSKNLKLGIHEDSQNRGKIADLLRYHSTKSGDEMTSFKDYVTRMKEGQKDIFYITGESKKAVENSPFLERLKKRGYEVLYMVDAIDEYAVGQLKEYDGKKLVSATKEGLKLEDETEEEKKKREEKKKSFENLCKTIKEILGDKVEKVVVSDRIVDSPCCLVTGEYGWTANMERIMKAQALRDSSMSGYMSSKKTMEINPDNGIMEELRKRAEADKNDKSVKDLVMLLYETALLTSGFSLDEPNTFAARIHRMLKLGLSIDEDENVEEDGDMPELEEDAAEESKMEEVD
UniProt P55737: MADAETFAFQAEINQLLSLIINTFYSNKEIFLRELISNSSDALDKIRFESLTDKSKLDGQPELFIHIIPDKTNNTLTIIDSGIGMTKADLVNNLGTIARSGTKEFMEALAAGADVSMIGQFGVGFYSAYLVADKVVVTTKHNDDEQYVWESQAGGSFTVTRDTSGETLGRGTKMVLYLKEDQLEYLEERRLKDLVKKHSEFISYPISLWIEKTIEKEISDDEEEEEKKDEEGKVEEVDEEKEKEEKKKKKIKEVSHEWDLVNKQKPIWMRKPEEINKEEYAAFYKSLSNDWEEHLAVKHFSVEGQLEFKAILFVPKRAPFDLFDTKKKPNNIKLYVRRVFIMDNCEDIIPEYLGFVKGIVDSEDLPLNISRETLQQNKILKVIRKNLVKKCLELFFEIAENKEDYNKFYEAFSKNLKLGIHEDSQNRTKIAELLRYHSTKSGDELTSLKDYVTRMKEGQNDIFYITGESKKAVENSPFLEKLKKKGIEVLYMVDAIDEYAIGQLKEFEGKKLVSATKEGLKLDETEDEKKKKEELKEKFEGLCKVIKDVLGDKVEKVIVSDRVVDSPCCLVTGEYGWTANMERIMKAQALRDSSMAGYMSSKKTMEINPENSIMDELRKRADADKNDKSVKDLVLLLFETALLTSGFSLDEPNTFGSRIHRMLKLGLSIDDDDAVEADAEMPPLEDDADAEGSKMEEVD

Biological target: T1, APRF1–YFPn (Arabidopsis thaliana) (UniProt Q9LYK6)
T1 sequence: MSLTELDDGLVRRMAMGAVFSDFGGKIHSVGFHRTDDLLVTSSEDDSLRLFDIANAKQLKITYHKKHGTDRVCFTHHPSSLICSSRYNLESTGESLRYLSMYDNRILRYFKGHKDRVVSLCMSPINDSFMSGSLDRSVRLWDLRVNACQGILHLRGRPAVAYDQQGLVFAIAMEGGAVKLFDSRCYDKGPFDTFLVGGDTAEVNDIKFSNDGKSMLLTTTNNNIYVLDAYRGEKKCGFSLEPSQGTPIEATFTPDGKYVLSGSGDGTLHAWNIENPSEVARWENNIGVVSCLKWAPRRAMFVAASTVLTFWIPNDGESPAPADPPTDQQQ
Test: split reporter; BiFC with the pSPYNE/pSPYCE vectors in N. benthamiana leaf epidermal cells, observed 48–72 h after Agrobacterium infiltration; empty YFPc or YFPn vectors as negative controls

Substance | binding
HSP90.1–YFPc (from UniProt P27323 1-700) | binds
HSP90.2–YFPc (from UniProt P55737 1-699) | binds
